{"sequences": {"note": "By UniProt entry, the sequences of proteins in these tests, tags left out. Where a name states a change or a piece, a line headed by the entry shows the natural chain unless it says otherwise.", "UniProt Q14186": "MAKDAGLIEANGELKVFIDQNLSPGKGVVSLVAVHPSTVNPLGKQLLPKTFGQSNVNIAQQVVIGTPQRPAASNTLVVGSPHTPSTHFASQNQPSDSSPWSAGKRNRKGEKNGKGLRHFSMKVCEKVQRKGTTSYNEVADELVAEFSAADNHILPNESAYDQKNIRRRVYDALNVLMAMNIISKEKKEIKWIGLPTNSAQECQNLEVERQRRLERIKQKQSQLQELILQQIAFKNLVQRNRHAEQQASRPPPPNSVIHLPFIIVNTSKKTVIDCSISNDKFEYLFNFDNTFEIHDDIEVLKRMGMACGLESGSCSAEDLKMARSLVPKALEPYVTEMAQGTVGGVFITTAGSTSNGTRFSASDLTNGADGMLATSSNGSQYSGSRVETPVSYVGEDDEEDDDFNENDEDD", "UniProt Q15329": "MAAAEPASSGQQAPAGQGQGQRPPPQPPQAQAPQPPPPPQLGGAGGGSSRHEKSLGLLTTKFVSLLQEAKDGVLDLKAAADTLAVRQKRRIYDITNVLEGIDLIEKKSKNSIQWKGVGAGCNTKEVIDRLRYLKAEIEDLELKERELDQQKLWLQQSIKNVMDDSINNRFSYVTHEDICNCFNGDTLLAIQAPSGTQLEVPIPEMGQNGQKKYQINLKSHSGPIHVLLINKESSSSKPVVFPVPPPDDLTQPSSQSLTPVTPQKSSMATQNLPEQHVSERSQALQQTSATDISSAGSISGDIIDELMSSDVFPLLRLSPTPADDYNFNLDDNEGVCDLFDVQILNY"}, "source": "patent US6448376", "target": "DP-1 (expressed from pCMV-DP-1) (UniProt Q14186)", "experiment": "band shift assay (EMSA) with extracts of transfected U2-OS cells", "note": "Results are given in words; binding and its absence hold for the method and conditions named. Some results given as binding are weak or reduced against the parent protein; the word gives no strength."}
{"substance": "HA-tagged full length human E2F-5 (expressed from pJ3-E2F-5) (from UniProt Q15329 1-346)", "values": [{"measurement": "binding", "result": "binds"}]}
